Laboratory results published in PMC9925322.

Amino acid sequences for entries named in this document (tags omitted). A change or cut given only in a name is not applied to a line headed by its entry.
UniProt Q93096: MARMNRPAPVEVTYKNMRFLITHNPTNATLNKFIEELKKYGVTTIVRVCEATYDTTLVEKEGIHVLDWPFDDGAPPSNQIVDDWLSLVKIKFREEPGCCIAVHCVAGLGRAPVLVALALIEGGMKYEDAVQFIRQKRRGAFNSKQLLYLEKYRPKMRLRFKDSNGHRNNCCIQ

Target: Flag-mutant PTP4A1 (D72A/C104S in the text; D74A/C104S in the legend) (UniProt Q93096)
Experiment: co-IP; HEK293T cells co-transfected; lysates immunoprecipitated with anti-Flag antibody overnight at 4 °C, protein G-Sepharose beads 2 h at 4 °C; Western blot

binding: no binding
B1: HA-CREBH(F), the inactive form of cyclic adenosine monophosphate-responsive element-binding protein H (protein, UniProt Q68CJ9 1-461)
chain: MNTDLAAGKMASAACSMDPIDSFELLDLLFDRQDGILRHVELGEGWGHVKDQQVLPNPDSDDFLSSILGSGDSLPSSPLWSPEGSDSGISEDLPSDPQDTPPRSGPATSPAGCHPAQPGKGPCLSYHPGNSCSTTTPGPVIQVPEASVTIDLEMWSPGGRICAEKPADPVDLSPRCNLTVKDLLLSGSSGDLQQHHLGASYLLRPGAGHCQELVLTEDEKKLLAKEGITLPTQLPLTKYEERVLKKIRRKIRNKQSAQESRKKKKEYIDGLETRMSACTAQNQELQRKVLHLEKQNLSLLEQLKKLQAIVVQSTSKSAQTGTCVAVLLLSFALIILPSISPFGPNKTESPGDFAPVRVFSRTLHNDAASRVAADAVPGSEAPGPRPEADTTREESPGSPGADWGFQDTANLTNSTEELDNATLVLRNATEGLGQVALLDWVAPGPSTGSGRAGLEAAGDEL

No constants are given. Whether binding was seen depends on the method and setting. In cells and extracts the contact can be indirect. Sequences can lack the tags named with a protein.
